Test results reported in US12281080B2, “Quinoline-based compounds and methods of inhibiting CDK8/19” (University of South Carolina, priority 2018, dated 2025).

System: 468 human kinases and disease relevant mutant variants
Assay: KINOMEscan scanMAX panel, whole panel
Assay type: binding
Settings: 2,000 nM

## CN1CCN(C(=O)c2ccc3cc(CCNc4ccnc5ccc(C#N)cc45)ccc3c2)CC1 [compound 6148, 4-((2-(6-(4-methylpiperazine-1-carbonyl)naphthalen-2-yl)ethyl)amino)quinoline-6-carbonitrile]
(number of non-mutant kinases with % Ctrl <10)/(number of non-mutant kinases tested)
  S(10) kinome selectivity S-score: 0.002
(number of non-mutant kinases with % Ctrl <35)/(number of non-mutant kinases tested)
  S(35) kinome selectivity S-score: 0.012
